In the supplement of paper PMC10849652:
This is one part of the list.

By UniProt entry, the sequences of proteins in these tests, tags left out. Where a name states a change or a piece, a line headed by the entry shows the natural chain unless it says otherwise.
UniProt Q9Y3S2: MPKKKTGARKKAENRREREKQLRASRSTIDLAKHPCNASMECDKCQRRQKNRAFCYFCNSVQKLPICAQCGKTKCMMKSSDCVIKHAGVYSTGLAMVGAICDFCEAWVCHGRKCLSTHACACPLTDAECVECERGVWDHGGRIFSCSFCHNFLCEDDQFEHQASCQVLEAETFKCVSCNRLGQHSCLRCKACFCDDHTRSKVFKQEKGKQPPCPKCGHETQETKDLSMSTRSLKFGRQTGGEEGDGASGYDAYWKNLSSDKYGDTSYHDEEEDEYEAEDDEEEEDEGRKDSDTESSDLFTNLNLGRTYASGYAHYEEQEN
UniProt Q9UL40: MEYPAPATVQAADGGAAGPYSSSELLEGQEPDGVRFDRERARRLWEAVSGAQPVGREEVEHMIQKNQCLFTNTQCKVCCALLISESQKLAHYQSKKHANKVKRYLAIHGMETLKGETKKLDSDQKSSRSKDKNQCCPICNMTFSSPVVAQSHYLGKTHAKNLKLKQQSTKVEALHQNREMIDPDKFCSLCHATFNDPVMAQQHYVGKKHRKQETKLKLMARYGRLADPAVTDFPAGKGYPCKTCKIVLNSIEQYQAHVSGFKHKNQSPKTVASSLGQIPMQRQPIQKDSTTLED
UniProt Q8TF68: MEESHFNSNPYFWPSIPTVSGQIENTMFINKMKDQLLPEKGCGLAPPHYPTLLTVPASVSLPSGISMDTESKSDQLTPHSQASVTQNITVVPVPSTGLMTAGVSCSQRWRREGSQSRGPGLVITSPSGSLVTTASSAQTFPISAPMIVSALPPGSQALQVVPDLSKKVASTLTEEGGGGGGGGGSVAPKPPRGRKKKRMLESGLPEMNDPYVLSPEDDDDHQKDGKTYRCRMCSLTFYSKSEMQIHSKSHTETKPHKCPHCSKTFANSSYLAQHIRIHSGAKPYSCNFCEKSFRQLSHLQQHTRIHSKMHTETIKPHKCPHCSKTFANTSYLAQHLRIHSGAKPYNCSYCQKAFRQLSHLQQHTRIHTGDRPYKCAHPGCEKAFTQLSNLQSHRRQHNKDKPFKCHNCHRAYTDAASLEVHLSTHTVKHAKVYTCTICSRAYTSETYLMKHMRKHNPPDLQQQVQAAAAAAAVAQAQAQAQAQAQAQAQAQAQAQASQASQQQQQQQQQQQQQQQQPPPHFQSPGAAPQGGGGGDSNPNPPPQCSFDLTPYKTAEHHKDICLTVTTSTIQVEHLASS
UniProt Q96IQ9: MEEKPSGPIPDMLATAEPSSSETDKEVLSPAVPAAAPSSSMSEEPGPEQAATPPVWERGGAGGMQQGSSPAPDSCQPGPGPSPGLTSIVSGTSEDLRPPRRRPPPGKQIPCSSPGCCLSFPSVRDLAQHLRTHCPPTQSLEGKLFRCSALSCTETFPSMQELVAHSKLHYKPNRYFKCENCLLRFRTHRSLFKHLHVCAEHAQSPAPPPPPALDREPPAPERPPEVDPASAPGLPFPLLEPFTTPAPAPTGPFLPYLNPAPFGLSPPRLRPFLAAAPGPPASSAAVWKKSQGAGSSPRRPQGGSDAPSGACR
UniProt Q9Y4E5: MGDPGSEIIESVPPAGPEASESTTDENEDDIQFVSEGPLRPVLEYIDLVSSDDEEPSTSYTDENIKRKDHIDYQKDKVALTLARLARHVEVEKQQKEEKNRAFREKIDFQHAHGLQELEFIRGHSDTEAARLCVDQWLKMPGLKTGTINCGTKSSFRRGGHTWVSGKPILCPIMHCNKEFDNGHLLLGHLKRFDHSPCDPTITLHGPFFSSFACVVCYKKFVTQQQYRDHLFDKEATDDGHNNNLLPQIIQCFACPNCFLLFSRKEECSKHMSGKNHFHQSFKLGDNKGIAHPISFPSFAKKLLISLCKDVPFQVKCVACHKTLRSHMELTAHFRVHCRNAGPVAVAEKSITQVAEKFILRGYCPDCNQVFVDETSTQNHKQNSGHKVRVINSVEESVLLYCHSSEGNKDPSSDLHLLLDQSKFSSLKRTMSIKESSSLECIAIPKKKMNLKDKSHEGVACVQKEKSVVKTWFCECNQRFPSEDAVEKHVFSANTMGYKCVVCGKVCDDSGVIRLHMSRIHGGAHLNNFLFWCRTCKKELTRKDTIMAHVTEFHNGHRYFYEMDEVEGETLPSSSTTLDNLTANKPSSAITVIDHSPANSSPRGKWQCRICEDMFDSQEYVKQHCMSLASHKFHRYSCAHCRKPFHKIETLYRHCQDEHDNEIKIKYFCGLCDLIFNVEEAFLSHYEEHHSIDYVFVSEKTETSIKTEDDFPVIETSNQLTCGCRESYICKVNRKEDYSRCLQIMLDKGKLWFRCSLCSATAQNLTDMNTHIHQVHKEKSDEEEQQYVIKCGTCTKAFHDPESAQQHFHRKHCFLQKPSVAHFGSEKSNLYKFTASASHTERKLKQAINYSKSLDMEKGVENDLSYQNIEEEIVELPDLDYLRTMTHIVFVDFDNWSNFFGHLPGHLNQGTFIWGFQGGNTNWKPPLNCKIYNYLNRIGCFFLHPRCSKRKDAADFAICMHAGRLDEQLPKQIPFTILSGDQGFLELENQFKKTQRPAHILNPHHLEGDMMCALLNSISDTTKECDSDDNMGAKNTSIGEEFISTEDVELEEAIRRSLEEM
UniProt Q8NB15: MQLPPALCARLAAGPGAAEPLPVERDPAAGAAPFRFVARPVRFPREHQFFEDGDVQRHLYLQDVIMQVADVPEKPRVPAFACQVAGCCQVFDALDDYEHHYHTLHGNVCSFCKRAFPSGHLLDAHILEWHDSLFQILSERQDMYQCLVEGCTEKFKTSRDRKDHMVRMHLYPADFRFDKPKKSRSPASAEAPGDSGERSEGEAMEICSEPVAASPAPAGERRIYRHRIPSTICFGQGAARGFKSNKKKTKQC
UniProt Q96KM6: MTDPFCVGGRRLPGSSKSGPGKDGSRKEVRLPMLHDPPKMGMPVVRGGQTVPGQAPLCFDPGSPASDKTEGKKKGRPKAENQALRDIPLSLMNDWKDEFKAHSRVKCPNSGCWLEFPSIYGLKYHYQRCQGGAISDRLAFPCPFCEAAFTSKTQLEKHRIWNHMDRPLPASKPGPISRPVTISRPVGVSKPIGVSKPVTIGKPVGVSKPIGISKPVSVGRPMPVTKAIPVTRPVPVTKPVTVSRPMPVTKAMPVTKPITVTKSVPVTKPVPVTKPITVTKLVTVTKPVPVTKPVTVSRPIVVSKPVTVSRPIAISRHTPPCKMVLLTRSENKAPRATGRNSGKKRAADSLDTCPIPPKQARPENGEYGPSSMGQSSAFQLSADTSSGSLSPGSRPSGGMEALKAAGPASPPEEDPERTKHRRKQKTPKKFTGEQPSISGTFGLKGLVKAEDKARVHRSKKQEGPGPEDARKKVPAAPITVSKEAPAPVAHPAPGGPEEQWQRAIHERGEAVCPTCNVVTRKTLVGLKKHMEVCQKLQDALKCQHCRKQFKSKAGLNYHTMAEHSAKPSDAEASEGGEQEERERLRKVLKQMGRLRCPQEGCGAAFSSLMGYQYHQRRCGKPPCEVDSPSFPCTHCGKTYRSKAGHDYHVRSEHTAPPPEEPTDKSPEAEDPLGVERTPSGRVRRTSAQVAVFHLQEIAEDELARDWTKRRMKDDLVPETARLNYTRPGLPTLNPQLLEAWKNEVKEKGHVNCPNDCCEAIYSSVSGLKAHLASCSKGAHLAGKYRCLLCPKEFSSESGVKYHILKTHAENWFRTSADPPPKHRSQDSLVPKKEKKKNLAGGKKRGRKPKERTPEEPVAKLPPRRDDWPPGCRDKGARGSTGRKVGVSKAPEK
UniProt Q8NAF0: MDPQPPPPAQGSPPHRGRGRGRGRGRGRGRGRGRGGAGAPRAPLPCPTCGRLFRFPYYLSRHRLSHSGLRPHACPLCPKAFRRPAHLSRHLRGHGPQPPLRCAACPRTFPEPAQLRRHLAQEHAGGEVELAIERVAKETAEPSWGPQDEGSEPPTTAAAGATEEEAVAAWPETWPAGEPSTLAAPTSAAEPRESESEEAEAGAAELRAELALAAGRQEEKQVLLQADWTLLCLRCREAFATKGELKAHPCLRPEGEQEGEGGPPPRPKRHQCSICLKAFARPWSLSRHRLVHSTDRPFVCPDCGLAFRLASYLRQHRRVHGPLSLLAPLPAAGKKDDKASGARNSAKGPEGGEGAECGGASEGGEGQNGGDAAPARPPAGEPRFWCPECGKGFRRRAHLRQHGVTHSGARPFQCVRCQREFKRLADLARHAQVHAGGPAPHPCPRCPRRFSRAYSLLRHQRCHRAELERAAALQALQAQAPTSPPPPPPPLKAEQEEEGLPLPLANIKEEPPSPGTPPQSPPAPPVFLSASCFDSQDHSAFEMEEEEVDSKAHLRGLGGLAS
UniProt Q9P0T4: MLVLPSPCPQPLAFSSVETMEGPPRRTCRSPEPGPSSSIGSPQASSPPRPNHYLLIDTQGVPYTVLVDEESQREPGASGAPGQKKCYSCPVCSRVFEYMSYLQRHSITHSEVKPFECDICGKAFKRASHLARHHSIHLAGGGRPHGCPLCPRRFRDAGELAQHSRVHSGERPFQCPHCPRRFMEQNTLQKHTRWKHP
UniProt Q5BKZ1: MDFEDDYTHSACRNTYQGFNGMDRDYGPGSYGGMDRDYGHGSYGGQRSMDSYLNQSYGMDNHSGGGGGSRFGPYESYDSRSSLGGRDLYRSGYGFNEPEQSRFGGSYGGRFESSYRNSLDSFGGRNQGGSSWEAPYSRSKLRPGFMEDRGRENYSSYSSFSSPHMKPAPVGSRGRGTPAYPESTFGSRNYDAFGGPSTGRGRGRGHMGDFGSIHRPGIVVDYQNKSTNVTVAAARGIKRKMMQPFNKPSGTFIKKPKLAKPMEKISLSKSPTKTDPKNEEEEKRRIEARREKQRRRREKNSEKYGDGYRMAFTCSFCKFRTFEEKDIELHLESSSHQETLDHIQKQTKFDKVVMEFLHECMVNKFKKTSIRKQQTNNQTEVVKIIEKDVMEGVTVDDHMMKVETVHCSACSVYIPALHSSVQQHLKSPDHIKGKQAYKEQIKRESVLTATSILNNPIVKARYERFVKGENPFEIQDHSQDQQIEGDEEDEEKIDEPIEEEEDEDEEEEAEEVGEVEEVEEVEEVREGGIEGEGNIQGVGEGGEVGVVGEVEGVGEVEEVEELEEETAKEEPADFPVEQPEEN
UniProt Q6N043: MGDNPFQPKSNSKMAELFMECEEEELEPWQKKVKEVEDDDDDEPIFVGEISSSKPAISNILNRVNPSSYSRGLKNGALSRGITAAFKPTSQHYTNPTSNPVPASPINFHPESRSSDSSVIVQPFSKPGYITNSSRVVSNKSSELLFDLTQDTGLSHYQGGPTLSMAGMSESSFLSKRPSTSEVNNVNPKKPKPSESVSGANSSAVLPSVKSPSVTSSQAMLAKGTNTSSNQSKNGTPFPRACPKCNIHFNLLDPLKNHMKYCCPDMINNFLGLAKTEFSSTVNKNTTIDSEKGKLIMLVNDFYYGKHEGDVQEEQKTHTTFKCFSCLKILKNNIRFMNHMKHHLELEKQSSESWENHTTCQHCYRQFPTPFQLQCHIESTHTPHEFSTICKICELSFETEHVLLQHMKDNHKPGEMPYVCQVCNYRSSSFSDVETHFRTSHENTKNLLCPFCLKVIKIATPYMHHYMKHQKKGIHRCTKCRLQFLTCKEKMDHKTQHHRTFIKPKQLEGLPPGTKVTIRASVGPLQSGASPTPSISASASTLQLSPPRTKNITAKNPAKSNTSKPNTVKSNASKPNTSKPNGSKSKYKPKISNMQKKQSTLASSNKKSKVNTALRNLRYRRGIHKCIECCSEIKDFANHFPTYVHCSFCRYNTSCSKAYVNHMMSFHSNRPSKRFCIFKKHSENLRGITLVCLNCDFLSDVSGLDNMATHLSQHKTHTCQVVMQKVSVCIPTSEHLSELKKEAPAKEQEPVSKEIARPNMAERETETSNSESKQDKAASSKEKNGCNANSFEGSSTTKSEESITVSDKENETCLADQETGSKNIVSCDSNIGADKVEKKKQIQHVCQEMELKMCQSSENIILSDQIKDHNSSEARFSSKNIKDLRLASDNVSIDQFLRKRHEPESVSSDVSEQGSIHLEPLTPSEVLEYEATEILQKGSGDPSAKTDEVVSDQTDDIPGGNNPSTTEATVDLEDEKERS
UniProt Q9H609: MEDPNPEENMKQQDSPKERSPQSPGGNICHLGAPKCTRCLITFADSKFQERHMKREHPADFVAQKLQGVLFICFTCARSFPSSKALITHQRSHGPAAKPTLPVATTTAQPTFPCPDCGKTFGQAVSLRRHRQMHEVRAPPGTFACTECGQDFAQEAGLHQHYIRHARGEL
UniProt Q8N0Y2: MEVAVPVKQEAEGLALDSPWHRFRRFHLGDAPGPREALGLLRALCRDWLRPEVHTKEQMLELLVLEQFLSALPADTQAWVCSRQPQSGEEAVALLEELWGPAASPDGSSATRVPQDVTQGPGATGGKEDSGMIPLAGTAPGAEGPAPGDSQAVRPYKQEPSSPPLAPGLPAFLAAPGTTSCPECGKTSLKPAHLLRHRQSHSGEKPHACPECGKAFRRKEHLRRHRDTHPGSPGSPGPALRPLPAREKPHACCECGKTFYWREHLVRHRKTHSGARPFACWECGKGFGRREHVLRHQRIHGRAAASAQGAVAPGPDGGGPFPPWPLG

Legend:
Assay in all cases: log2 fold change, soluble protein after heating vs DMSO (PISA); higher = thermal stabilisation; K562 cells, 10 uM, 30 min; active = over 0.2 and 3.5 SD of the protein, either way, in both replicates (recomputed)
ZNF277 = ZNF277 (UniProt Q9NRM2)
Summary of the method: (§1)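 K562 cells at 2×10^6 cells/mL were treated with 10 μM compound for 30 min. Aliquots were heated for 3 min across 48°C-58°C, pooled, and extracted in PBS with 0.5% NP-40 at 4°C; soluble protein was the supernatant after 21,000xg for 90 min. Soluble protein was quantified by TMTpro 16plex LC-MS/MS with channel sums equalised, and reported as log2 fold change in thermal stability against DMSO controls, with values from duplicates.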

ZNF316 = ZNF316 (UniProt A6NFI3)
Summary of the method: as §1

ZNF330 = ZNF330 (UniProt Q9Y3S2)
Summary of the method: as §1

ZNF346 = ZNF346 (UniProt Q9UL40)
Summary of the method: as §1

ZNF384 = ZNF384 (UniProt Q8TF68)
Summary of the method: as §1

ZNF385A = ZNF385A (UniProt Q96PM9)
Summary of the method: as §1

ZNF414 isoform 2 = ZNF414 isoform 2 (UniProt Q96IQ9)
Summary of the method: as §1

ZNF428 = ZNF428 (UniProt M0QXZ5)
Summary of the method: as §1

ZNF451 = ZNF451 (UniProt Q9Y4E5)
Summary of the method: as §1

ZNF511 isoform 1 = ZNF511 isoform 1 (UniProt Q8NB15)
Summary of the method: as §1

ZNF512 = ZNF512 (UniProt Q96ME7)
Summary of the method: as §1

ZNF512B = ZNF512B (UniProt Q96KM6)
Summary of the method: as §1

ZNF579 = ZNF579 (UniProt Q8NAF0)
Summary of the method: as §1

ZNF581 = ZNF581 (UniProt Q9P0T4)
Summary of the method: as §1

ZNF318 = ZNF318 (UniProt Q5VUA4)
Summary of the method: as §1

ZNF326 = ZNF326 (UniProt Q5BKZ1)
Summary of the method: as §1

ZNF280D = ZNF280D (UniProt Q6N043)
Summary of the method: as §1

ZNF576 = ZNF576 (UniProt Q9H609)
Summary of the method: as §1

ZNF444 = ZNF444 (UniProt Q8N0Y2)
Summary of the method: as §1

ZNF580 = ZNF580 (UniProt Q9UK33)
Summary of the method: as §1

Measured: log2 fold change

COc1cccc2cc(-c3nc([C@H]4CC[C@H](C(=O)O)CC4)n4ncnc(N)c34)[nH]c12
inactive: ZNF277 = -0.24 | ZNF316 = -0.041 | ZNF330 = -0.08 | ZNF346 = -0.034 | ZNF384 = 0.046 | ZNF385A -0.133 | ZNF414 isoform 2 = 0.412 | ZNF428 = 0.02 | ZNF451 = -0.234 | ZNF511 isoform 1 = 0.099 | ZNF512 = -0.041 | ZNF512B -0.231 | ZNF579 = -0.078 | ZNF581 = 0.194

Cc1ccc(C(=O)N(CCCN)[C@@H](c2nc3cc(Cl)ccc3c(=O)n2Cc2ccccc2)C(C)C)cc1 [ispinesib]
inactive: ZNF277 = -0.27 | ZNF316 = -0.145 | ZNF318 = -0.072 | ZNF326 = -0.202 | ZNF330 = -0.1 | ZNF346 = -0.057 | ZNF385A -0.044 | ZNF414 isoform 2 = 0.322 | ZNF428 = 0.16 | ZNF511 isoform 1 = 0.296 | ZNF512B -0.289 | ZNF579 = 0.029

O=C(O)c1ccc2c(c1)nc(Nc1cccc(Cl)c1)c1ccncc12 [silmitasertib]
inactive: ZNF277 = 0.105 | ZNF316 = 0.123 | ZNF330 = 0.05 | ZNF346 = 0.074 | ZNF384 = 0.125 | ZNF385A 0.282 | ZNF414 isoform 2 = -0.116 | ZNF428 = 0.012 | ZNF451 = 0.354 | ZNF511 isoform 1 = 0.076 | ZNF512 = 0.234 | ZNF512B 0.217 | ZNF579 = -0.016 | ZNF581 = 0.051

NC1(c2ccc(-c3nc4ccn5c(=O)[nH]nc5c4cc3-c3ccccc3)cc2)CCC1
inactive: ZNF277 = 0.107 | ZNF316 = -0.089 | ZNF330 = 0.033 | ZNF346 = 0.086 | ZNF384 = 0.246 | ZNF385A 0.034 | ZNF414 isoform 2 = 0.06 | ZNF428 = 0.077 | ZNF451 = 0.389 | ZNF511 isoform 1 = -0.039 | ZNF512 = 0.151 | ZNF512B 0.215 | ZNF579 = -0.061 | ZNF581 = -0.061

Cc1nc(Nc2n[nH]c3c2CN(C(=O)N[C@H](CN(C)C)c2ccccc2)C3(C)C)c2sccc2n1
inactive: ZNF277 = 0.231 | ZNF280D 0.071 | ZNF330 = -0.041 | ZNF346 = 0.095 | ZNF385A -0.13 | ZNF428 = -0.006 | ZNF511 isoform 1 = 0.005 | ZNF512 = 0.187 | ZNF579 = -0.115

Cc1ccc(NC(=O)c2ccc(CN3CC[C@H](N(C)C)C3)c(C(F)(F)F)c2)cc1Nc1nccc(-c2cncnc2)n1 [bafetinib]
inactive: ZNF277 = 0.246 | ZNF316 = 0.251 | ZNF330 = -0.011 | ZNF346 = -0.006 | ZNF384 = -0.382 | ZNF385A 0.109 | ZNF414 isoform 2 = -0.125 | ZNF428 = -0.044 | ZNF511 isoform 1 = -0.098 | ZNF579 = 0.107

Cc1ccc(NC(=O)c2cccc(N(C)C)c2)cc1NC(=O)c1ccc(O)cc1
inactive: ZNF277 = -0.097 | ZNF316 = -0.062 | ZNF318 = 0.158 | ZNF326 = -0.043 | ZNF330 = 0 | ZNF346 = -0.045 | ZNF385A -0.01 | ZNF414 isoform 2 = 0.004 | ZNF428 = 0.084 | ZNF511 isoform 1 = 0.012 | ZNF512B 0.044 | ZNF579 = -0.183

Cn1cc(-c2ccc3nnc(C(F)(F)c4ccc5ncccc5c4)n3n2)cn1
inactive: ZNF277 = -0.064 | ZNF316 = -0.041 | ZNF318 = -0.018 | ZNF326 = 0.003 | ZNF330 = 0.005 | ZNF346 = 0.066 | ZNF385A -0.023 | ZNF414 isoform 2 = -0.174 | ZNF428 = -0.044 | ZNF511 isoform 1 = -0.132 | ZNF512B -0.202 | ZNF579 = 0.002

C=CC(=O)N1CCC[C@@H](n2nc(-c3ccc(Oc4ccccc4)cc3)c3c(N)ncnc32)C1 [ibrutinib]
inactive: ZNF277 = -0.028 | ZNF316 = -0.052 | ZNF330 = 0.006 | ZNF346 = 0.033 | ZNF384 = -0.043 | ZNF385A 0.19 | ZNF414 isoform 2 = -0.167 | ZNF428 = 0.019 | ZNF511 isoform 1 = 0.047 | ZNF579 = -0.024

Cc1ncc(-c2ccnc(Nc3ccc(S(C)(=O)=O)cc3)n2)n1C(C)C
inactive: ZNF277 = 0.017 | ZNF280D -0.055 | ZNF330 = -0.023 | ZNF346 = -0.1 | ZNF385A 0.024 | ZNF428 = 0.01 | ZNF511 isoform 1 = 0.015 | ZNF512 = -0.072 | ZNF579 = -0.054

NC(=O)c1ccc2nc(-c3ccc(Oc4ccc(Cl)cc4)cc3)[nH]c2c1
inactive: ZNF277 = -0.104 | ZNF330 = 0.066 | ZNF346 = -0.083 | ZNF384 = 0.041 | ZNF385A 0 | ZNF428 = -0.019 | ZNF512 = -0.014 | ZNF512B -0.187 | ZNF576 = 0.018 | ZNF579 = 0.042

CN(C)CC(=O)Nc1ccc2[nH]c(=O)c3ccccc3c2c1
inactive: ZNF277 = -0.003 | ZNF330 = -0.043 | ZNF346 = -0.024 | ZNF384 = -0.129 | ZNF385A -0.025 | ZNF414 isoform 2 = -0.024 | ZNF428 = -0.102 | ZNF444 = 0.195 | ZNF511 isoform 1 = 0.068 | ZNF579 = -0.026 | ZNF580 = 0.046

COC(=O)[C@H](CCSC)NC(=O)c1ccc(NC[C@@H](N)CS)cc1-c1ccccc1
inactive: ZNF277 = -0.047 | ZNF330 = 0.035 | ZNF346 = 0.023 | ZNF384 = -0.019 | ZNF385A -0.085 | ZNF414 isoform 2 = 0.291 | ZNF428 = 0.065 | ZNF444 = 0.015 | ZNF511 isoform 1 = -0.201 | ZNF579 = -0.012 | ZNF580 = -0.082

Cc1ccc(-n2nc(C(C)(C)C)cc2NC(=O)Nc2ccc(OCCN3CCOCC3)c3ccccc23)cc1 [doramapimod]
inactive: ZNF277 = 0.123 | ZNF316 = 0.132 | ZNF330 = -0.089 | ZNF346 = 0.024 | ZNF384 = 0.096 | ZNF414 isoform 2 = 0.009 | ZNF428 = -0.052 | ZNF512B 0.188 | ZNF579 = 0.11 | ZNF580 = 0.165

Sorted by length of the SMILES (rising): three of the compounds above.
Cc1ncc(-c2ccnc(Nc3ccc(S(C)(=O)=O)cc3)n2)n1C(C)C
inactive: ZNF277 = 0.017 | ZNF280D -0.055 | ZNF330 = -0.023 | ZNF346 = -0.1 | ZNF385A 0.024 | ZNF428 = 0.01 | ZNF511 isoform 1 = 0.015 | ZNF512 = -0.072 | ZNF579 = -0.054

NC(=O)c1ccc2nc(-c3ccc(Oc4ccc(Cl)cc4)cc3)[nH]c2c1
inactive: ZNF277 = -0.104 | ZNF330 = 0.066 | ZNF346 = -0.083 | ZNF384 = 0.041 | ZNF385A 0 | ZNF428 = -0.019 | ZNF512 = -0.014 | ZNF512B -0.187 | ZNF576 = 0.018 | ZNF579 = 0.042

Cc1ccc(-n2nc(C(C)(C)C)cc2NC(=O)Nc2ccc(OCCN3CCOCC3)c3ccccc23)cc1 [doramapimod]
inactive: ZNF277 = 0.123 | ZNF316 = 0.132 | ZNF330 = -0.089 | ZNF346 = 0.024 | ZNF384 = 0.096 | ZNF414 isoform 2 = 0.009 | ZNF428 = -0.052 | ZNF512B 0.188 | ZNF579 = 0.11 | ZNF580 = 0.165

Following part

O=C(Nc1nc2ccccc2n1CCN1CCOCC1)c1cccc([N+](=O)[O-])c1 [IRAK-1-4 Inhibitor I]
inactive: ZNF277 = -0.346 | ZNF316 = -0.022 | ZNF330 = 0.037 | ZNF346 = -0.029 | ZNF384 = -0.116 | ZNF414 isoform 2 = -0.124 | ZNF428 = 0.081 | ZNF512B -0.243 | ZNF579 = -0.096 | ZNF580 = 0.051

COc1ccc(Cn2ccc3ccc(C(=O)NO)cc32)cc1
inactive: ZNF277 = -0.073 | ZNF316 = 0.031 | ZNF330 = -0.027 | ZNF346 = -0.025 | ZNF384 = -0.22 | ZNF414 isoform 2 = 0.004 | ZNF428 = -0.014 | ZNF512B -0.07 | ZNF579 = 0.056 | ZNF580 = -0.134

CNc1nc(-c2ccc3c(N)n[nH]c3c2)cc(N2C[C@@H](C(=O)NC3CCCCC3)CC[C@H]2C)n1
inactive: ZNF277 = 0.11 | ZNF318 = -0.133 | ZNF330 = -0.034 | ZNF346 = -0.089 | ZNF385A 0.009 | ZNF428 = 0 | ZNF579 = 0.089 | ZNF580 = 0.128 | ZNF581 = 0.032

CCCS(=O)(=O)Nc1ccc(F)c(C(=O)c2c[nH]c3ncc(-c4ccc(Cl)cc4)cc23)c1F [vemurafenib]
inactive: ZNF277 = 0.063 | ZNF330 = -0.023 | ZNF346 = -0.015 | ZNF384 = 0.055 | ZNF385A -0.066 | ZNF414 isoform 2 = -0.111 | ZNF428 = 0.091 | ZNF444 = -0.086 | ZNF511 isoform 1 = -0.087 | ZNF579 = -0.157 | ZNF580 = 0.042

Cn1c2cc(S(C)=O)sc2c2cnn(Cc3cccc(N)c3)c(=O)c21 (configuration not stated)
inactive: ZNF277 = 0.084 | ZNF318 = -0.039 | ZNF330 = -0.036 | ZNF346 = 0.121 | ZNF385A 0.116 | ZNF428 = -0.081 | ZNF579 = 0.008 | ZNF580 = 0.259 | ZNF581 = 0.127

Cc1cccc(-c2[nH]c(C(C)(C)C)nc2-c2ccc3nccnc3c2)n1
inactive: ZNF277 = -0.107 | ZNF316 = -0.005 | ZNF330 = -0.084 | ZNF346 = -0.01 | ZNF384 = -0.077 | ZNF414 isoform 2 = -0.007 | ZNF428 = -0.06 | ZNF512B -0.148 | ZNF579 = -0.073 | ZNF580 = -0.183

CN1CCN(CCOc2cc(OC3CCOCC3)c3c(Nc4c(Cl)ccc5c4OCO5)ncnc3c2)CC1 [saracatinib]
inactive: ZNF277 = -0.276 | ZNF318 = 0.003 | ZNF330 = -0.006 | ZNF346 = -0.027 | ZNF385A -0.052 | ZNF428 = 0.037 | ZNF579 = -0.025 | ZNF580 = 0.108 | ZNF581 = -0.484

CCN(CC)Cc1ccc2cc(COC(=O)Nc3ccc(C(=O)NO)cc3)ccc2c1 [givinostat]
inactive: ZNF277 = 0.199 | ZNF330 = -0.119 | ZNF346 = 0.007 | ZNF384 = -0.082 | ZNF385A 0.022 | ZNF428 = -0.029 | ZNF512 = 0.112 | ZNF512B 0.131 | ZNF576 = 0.026 | ZNF579 = 0.042

NCC(=O)Nc1ccc(-n2nc(C(F)(F)F)cc2-c2ccc3c(ccc4ccccc43)c2)cc1
inactive: ZNF277 = -0.148 | ZNF330 = 0 | ZNF346 = 0.105 | ZNF384 = 0.054 | ZNF385A -0.079 | ZNF414 isoform 2 = 0.063 | ZNF428 = -0.008 | ZNF444 = 0.06 | ZNF511 isoform 1 = -0.005 | ZNF579 = 0.085 | ZNF580 = -0.038
